These are yes or no findings as the source states them, for the method shown. In cells and extracts the contact can be indirect. A result given as binding can be weak or reduced; the word gives no strength.

The target in test [1] is C-terminal domain of the CAMSA2147 CJIE1 H-fiber (tail fiber protein H) (CJIE1 prophage of C. jejuni CAMSA2147). The experiment in a line: pull-down.
In test [2] the target is C-terminal domain of the RM1221 CJIE1 H-fiber (tail fiber protein H) (CJIE1 prophage of C. jejuni RM1221). The experiment in a line: pull-down.

B1: major outer membrane protein (MOMP) of C. jejuni CAMSA2147 (receptor, UniProt P80672 23-424)
chain: TPLEEAIKDVDVSGVLRYRYDTGNFDKNFVNNSNLNNSKQDHKYRAQVNFSAAIADNFKAFVQFDYNAADGGYGANGIKNDQKGLFVRQLYLTYTNEDVATSVIAGKQQLNLIWTDNAIDGLVGTGVKVVNNSIDGLTLAAFAVDSFMAAEQGADLLEHSNISTTSNQAPFKVDSVGNLYGAAAVGSYDLAGGQFNPQLWLAYWDQVAFFYAVDAAYSTTIFDGINWTLEGAYLGNSLDSELDDKTHANGNLFALKGSIEVNGWDASLGGLYYGDKEKASTVVIEDQGNLGSLLAGEEIFYTTGSRLNGDTGRNIFGYVTGGYTFNETVRVGADFVYGGTKTEAANHLGGGKKLEAVARVDYKYSPKLNFSAFYSYVNLDQGVNTNESADHSTVRLQALYKF
Consider B1, for which the binding result in test [1] was “binds”; in test [2], “no binding”.

B2: major outer membrane protein (MOMP) of C. jejuni RM1221 (receptor, UniProt P80672 23-424)
chain: TPLEEAIKDVDVSGVLRYRYDTGNFDKNFVNNSNLNNSKQDHKYRAQVNFSAAIADNFKAFVQFDYNAADGGYGANGIKNDQKGLFVRQLYLTYTNEDVATSVIAGKQQLNLIWTDNAIDGLVGTGVKVVNNSIDGLTLAAFAVDSFMAAEQGADLLEHSNISTTSNQAPFKVDSVGNLYGAAAVGSYDLAGGQFNPQLWLAYWDQVAFFYAVDAAYSTTIFDGINWTLEGAYLGNSLDSELDDKTHANGNLFALKGSIEVNGWDASLGGLYYGDKEKASTVVIEDQGNLGSLLAGEEIFYTTGSRLNGDTGRNIFGYVTGGYTFNETVRVGADFVYGGTKTEAANHLGGGKKLEAVARVDYKYSPKLNFSAFYSYVNLDQGVNTNESADHSTVRLQALYKF
Regarding B2, the binding entry in test [2] is recorded as “binds”.

Source of the values: publication doi:10.1101/2023.12.21.572796.
